Experimental data: PubChem BioAssay AID1259254 (NCATS, 2017)
Aim: 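Gene knock-downs that lead to re-replication, shown by excess G2 DNA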 (primary screen). System: human HCT116 colorectal cancer cells. Knock-down reagent: single siRNA against human genes. Timing: 3 days. Measurement: 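Imaged Hoechst DNA stain sorts each cell into a cycle phase by DNA amount; per plate, G2 fraction set to 0% for non-targeting and 100% for GMNN siRNA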. Direction: G2 robust z-score and G2 cells, % of GMNN control: higher = more G2 cells, more excess DNA replication. Active means: 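An siRNA counts as active if its G2 robust z-score lies at least 5 MADs above the screen median; here such calls match roughly 38% of GMNN control or more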.
In all, the deposit lists about 59,000 reagents; this is a part drawn at random. In the full data, about 1,550 (2.6%) were called active. 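G2 share is only a proxy for re-replication; each gene was hit by three separate siRNAs, and active genes were retested.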 The numbers tell different reagents against one gene apart. Further read-outs or replicates are left out here. No sequences are given here. The record does not give: the amount of reagent.

no.	target	reagent	G2 robust z-score	G2 cells, % of GMNN control	activity call
1	CDHR3	1	-0.181	1.7	inactive
2	CDHR3	2	-0.156	1.87	inactive
3	CDHR3	3	-0.208	1.5	inactive
4	CHST8	1	-0.966	-3.83	inactive
5	CHST8	2	1.24	11.7	inactive
6	CHST8	3	0.188	4.29	inactive
7	ICAM5	1	10.3	75.5	active
8	ICAM5	2	-1.14	-5.08	inactive
9	ICAM5	3	3.47	27.4	inactive
10	GOLT1B	1	-0.613	-1.34	inactive
11	GOLT1B	2	-0.161	1.83	inactive
12	GOLT1B	3	0.23	4.58	inactive
13	MAD2L1BP	1	-0.408	0.0999	inactive
14	MAD2L1BP	2	0.32	5.22	inactive
15	MAD2L1BP	3	-0.581	-1.12	inactive
16	CDKN1C	1	2.32	19.3	inactive
17	CDKN1C	2	0.104	3.7	inactive
18	CDKN1C	3	-0.0224	2.81	inactive
19	ERCC1	1	0.0986	3.66	inactive
20	ERCC1	2	-0.651	-1.61	inactive
21	ERCC1	3	-0.0118	2.88	inactive
22	ARL2BPP3	1	0.639	7.47	inactive
23	ARL2BPP3	2	-0.518	-0.68	inactive
24	ARL2BPP3	3	-0.327	0.668	inactive
25	MRC2	1	3.8	29.7	inactive
26	MRC2	2	-1.26	-5.87	inactive
27	MRC2	3	-0.779	-2.52	inactive
28	TMEM235	1	-0.0335	2.73	inactive
29	TMEM235	2	-0.89	-3.29	inactive
30	TMEM235	3	1.1	10.7	inactive
31	LINC01822	1	-0.672	-1.76	inactive
32	LINC01822	2	0.75	8.24	inactive
33	LINC01822	3	-0.749	-2.31	inactive
34	ZNF777	1	-0.499	-0.543	inactive
35	ZNF777	2	-0.829	-2.87	inactive
36	ZNF777	3	-0.563	-0.993	inactive
37	ZNF398	1	1.85	16	inactive
38	ZNF398	2	-0.434	-0.0886	inactive
39	ZNF398	3	-0.617	-1.38	inactive
40	LITAF	1	-0.0321	2.74	inactive
41	LITAF	2	3.08	24.6	inactive
42	LITAF	3	0.614	7.28	inactive
43	HOGA1	1	-0.725	-2.13	inactive
44	HOGA1	2	-0.723	-2.12	inactive
45	HOGA1	3	0.644	7.5	inactive
46	TMEM14EP	1	-0.866	-3.13	inactive
47	TMEM14EP	2	0.0575	3.37	inactive
48	TMEM14EP	3	-0.751	-2.32	inactive
49	NETO2	1	-0.927	-3.56	inactive
50	NETO2	2	-1.13	-4.97	inactive
51	NETO2	3	-1.14	-5.08	inactive
52	RECQL4	1	0.14	3.95	inactive
53	RECQL4	2	0.117	3.79	inactive
54	RECQL4	3	0.0486	3.31	inactive
55	NOP53	1	0.217	4.5	inactive
56	NOP53	2	0.627	7.38	inactive
57	NOP53	3	1.84	15.9	inactive
58	TOMM22P3	1	3.22	25.7	inactive
59	TOMM22P3	2	0.856	8.99	inactive
60	TOMM22P3	3	-1.18	-5.32	inactive
61	ST20-AS1	1	0.509	6.55	inactive
62	ST20-AS1	2	2.76	22.4	inactive
63	ST20-AS1	3	-0.188	1.65	inactive
64	ARL1	1	1.32	12.2	inactive
65	ARL1	2	0.35	5.43	inactive
66	ARL1	3	-0.104	2.23	inactive
67	RNF152	1	-0.91	-3.43	inactive
68	RNF152	2	0.647	7.52	inactive
69	RNF152	3	4.33	33.4	inactive

Targets above whose target name starts with N or n (6):
target	reagent	G2 robust z-score	G2 cells, % of GMNN control	activity call
NETO2	1	-0.927	-3.56	inactive
NETO2	2	-1.13	-4.97	inactive
NETO2	3	-1.14	-5.08	inactive
NOP53	1	0.217	4.5	inactive
NOP53	2	0.627	7.38	inactive
NOP53	3	1.84	15.9	inactive
